Results on 1 molecule are retold here after PMC6812009, “Covalent Aurora A regulation by the metabolic integrator coenzyme A” (Redox Biology, 2019).

These are yes or no findings as the source states them, for the method shown.

The assay has as its target purified Aurora A Cys290Ala (human) (UniProt O14965). The assay can be described thus: non-reducing SDS-PAGE; purified Aurora A briefly exposed to peroxide; reducing compared with non-reducing SDS-PAGE; dimer sensitive to DTT; both purified.

B1: purified Aurora A Cys290Ala (enzyme, UniProt O14965 1-403)
chain: MDRSKENCISGPVKATAPVGGPKRVLVTQQFPCQNPLPVNSGQAQRVLCPSNSSQRIPLQAQKLVSSHKPVQNQKQKQLQATSVPHPVSRPLNNTQKSKQPLPSAPENNPEEELASKQKNEESKKRQWALEDFEIGRPLGKGKFGNVYLAREKQSKFILALKVLFKAQLEKAGVEHQLRREVEIQSHLRHPNILRLYGYFHDATRVYLILEYAPLGTVYRELQKLSKFDEQRTATYITELANALSYCHSKRVIHRDIKPENLLLGSAGELKIADFGWSVHAPSSRRTTLAGTLDYLPPEMIEGRMHDEKVDLWSLGVLCYEFLVGKPPFEANTYQETYKRISRVEFTFPDFVTEGARDLISRLLKHNPSQRPMLREVLEHPWITANSSKPSNCQNKESASKQS
Consider B1, for which the binding result was “no binding”.
